# The supplement of paper PMC11732987, “Enantioselective OTUD7B fragment discovery through chemoproteomics screening and high-throughput optimisation” (Communications Chemistry, 2025)
# Protein sequences, listed by entry. Tags and fused reporters are not part of them. Lines headed by an entry give the natural chain unless they say otherwise; changes in a name come on top. Residues count along the entry.
# UniProt Q15386: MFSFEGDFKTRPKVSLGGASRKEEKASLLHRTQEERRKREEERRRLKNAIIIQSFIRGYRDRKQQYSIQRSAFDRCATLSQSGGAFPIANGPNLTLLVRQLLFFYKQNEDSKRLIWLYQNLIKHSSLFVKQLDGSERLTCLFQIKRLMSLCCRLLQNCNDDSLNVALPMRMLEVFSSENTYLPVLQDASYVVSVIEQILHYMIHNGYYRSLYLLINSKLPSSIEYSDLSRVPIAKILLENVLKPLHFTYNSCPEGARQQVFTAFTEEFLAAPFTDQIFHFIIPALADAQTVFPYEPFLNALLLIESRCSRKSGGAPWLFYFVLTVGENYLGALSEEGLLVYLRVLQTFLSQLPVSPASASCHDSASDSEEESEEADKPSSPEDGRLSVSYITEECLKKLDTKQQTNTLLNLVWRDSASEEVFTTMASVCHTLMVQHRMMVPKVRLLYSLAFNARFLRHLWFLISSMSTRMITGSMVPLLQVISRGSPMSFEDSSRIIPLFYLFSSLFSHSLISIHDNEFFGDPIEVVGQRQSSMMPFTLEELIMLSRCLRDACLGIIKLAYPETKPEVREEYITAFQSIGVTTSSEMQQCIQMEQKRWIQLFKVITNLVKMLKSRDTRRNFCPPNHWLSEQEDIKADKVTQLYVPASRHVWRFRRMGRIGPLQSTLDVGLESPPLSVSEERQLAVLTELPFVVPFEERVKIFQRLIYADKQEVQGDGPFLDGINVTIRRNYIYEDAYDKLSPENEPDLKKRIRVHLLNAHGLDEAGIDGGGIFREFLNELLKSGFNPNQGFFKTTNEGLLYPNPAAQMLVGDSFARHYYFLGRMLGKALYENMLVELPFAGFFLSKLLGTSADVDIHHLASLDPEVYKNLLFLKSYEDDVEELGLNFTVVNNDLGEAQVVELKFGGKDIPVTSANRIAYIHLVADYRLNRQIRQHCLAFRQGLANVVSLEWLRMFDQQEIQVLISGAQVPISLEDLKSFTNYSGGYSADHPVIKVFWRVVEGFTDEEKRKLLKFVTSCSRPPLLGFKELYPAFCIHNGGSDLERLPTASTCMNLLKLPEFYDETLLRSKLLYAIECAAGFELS
# UniProt Q9NPG3, 26-46: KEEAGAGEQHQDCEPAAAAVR
# UniProt Q01081: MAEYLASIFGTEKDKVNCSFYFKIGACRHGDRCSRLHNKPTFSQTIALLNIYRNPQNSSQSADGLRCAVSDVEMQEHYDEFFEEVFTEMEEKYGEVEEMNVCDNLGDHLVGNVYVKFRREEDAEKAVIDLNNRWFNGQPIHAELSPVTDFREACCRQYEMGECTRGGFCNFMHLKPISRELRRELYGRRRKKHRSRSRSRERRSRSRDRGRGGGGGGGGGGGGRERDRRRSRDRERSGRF
# UniProt Q9Y4A5, whole entry, looked up: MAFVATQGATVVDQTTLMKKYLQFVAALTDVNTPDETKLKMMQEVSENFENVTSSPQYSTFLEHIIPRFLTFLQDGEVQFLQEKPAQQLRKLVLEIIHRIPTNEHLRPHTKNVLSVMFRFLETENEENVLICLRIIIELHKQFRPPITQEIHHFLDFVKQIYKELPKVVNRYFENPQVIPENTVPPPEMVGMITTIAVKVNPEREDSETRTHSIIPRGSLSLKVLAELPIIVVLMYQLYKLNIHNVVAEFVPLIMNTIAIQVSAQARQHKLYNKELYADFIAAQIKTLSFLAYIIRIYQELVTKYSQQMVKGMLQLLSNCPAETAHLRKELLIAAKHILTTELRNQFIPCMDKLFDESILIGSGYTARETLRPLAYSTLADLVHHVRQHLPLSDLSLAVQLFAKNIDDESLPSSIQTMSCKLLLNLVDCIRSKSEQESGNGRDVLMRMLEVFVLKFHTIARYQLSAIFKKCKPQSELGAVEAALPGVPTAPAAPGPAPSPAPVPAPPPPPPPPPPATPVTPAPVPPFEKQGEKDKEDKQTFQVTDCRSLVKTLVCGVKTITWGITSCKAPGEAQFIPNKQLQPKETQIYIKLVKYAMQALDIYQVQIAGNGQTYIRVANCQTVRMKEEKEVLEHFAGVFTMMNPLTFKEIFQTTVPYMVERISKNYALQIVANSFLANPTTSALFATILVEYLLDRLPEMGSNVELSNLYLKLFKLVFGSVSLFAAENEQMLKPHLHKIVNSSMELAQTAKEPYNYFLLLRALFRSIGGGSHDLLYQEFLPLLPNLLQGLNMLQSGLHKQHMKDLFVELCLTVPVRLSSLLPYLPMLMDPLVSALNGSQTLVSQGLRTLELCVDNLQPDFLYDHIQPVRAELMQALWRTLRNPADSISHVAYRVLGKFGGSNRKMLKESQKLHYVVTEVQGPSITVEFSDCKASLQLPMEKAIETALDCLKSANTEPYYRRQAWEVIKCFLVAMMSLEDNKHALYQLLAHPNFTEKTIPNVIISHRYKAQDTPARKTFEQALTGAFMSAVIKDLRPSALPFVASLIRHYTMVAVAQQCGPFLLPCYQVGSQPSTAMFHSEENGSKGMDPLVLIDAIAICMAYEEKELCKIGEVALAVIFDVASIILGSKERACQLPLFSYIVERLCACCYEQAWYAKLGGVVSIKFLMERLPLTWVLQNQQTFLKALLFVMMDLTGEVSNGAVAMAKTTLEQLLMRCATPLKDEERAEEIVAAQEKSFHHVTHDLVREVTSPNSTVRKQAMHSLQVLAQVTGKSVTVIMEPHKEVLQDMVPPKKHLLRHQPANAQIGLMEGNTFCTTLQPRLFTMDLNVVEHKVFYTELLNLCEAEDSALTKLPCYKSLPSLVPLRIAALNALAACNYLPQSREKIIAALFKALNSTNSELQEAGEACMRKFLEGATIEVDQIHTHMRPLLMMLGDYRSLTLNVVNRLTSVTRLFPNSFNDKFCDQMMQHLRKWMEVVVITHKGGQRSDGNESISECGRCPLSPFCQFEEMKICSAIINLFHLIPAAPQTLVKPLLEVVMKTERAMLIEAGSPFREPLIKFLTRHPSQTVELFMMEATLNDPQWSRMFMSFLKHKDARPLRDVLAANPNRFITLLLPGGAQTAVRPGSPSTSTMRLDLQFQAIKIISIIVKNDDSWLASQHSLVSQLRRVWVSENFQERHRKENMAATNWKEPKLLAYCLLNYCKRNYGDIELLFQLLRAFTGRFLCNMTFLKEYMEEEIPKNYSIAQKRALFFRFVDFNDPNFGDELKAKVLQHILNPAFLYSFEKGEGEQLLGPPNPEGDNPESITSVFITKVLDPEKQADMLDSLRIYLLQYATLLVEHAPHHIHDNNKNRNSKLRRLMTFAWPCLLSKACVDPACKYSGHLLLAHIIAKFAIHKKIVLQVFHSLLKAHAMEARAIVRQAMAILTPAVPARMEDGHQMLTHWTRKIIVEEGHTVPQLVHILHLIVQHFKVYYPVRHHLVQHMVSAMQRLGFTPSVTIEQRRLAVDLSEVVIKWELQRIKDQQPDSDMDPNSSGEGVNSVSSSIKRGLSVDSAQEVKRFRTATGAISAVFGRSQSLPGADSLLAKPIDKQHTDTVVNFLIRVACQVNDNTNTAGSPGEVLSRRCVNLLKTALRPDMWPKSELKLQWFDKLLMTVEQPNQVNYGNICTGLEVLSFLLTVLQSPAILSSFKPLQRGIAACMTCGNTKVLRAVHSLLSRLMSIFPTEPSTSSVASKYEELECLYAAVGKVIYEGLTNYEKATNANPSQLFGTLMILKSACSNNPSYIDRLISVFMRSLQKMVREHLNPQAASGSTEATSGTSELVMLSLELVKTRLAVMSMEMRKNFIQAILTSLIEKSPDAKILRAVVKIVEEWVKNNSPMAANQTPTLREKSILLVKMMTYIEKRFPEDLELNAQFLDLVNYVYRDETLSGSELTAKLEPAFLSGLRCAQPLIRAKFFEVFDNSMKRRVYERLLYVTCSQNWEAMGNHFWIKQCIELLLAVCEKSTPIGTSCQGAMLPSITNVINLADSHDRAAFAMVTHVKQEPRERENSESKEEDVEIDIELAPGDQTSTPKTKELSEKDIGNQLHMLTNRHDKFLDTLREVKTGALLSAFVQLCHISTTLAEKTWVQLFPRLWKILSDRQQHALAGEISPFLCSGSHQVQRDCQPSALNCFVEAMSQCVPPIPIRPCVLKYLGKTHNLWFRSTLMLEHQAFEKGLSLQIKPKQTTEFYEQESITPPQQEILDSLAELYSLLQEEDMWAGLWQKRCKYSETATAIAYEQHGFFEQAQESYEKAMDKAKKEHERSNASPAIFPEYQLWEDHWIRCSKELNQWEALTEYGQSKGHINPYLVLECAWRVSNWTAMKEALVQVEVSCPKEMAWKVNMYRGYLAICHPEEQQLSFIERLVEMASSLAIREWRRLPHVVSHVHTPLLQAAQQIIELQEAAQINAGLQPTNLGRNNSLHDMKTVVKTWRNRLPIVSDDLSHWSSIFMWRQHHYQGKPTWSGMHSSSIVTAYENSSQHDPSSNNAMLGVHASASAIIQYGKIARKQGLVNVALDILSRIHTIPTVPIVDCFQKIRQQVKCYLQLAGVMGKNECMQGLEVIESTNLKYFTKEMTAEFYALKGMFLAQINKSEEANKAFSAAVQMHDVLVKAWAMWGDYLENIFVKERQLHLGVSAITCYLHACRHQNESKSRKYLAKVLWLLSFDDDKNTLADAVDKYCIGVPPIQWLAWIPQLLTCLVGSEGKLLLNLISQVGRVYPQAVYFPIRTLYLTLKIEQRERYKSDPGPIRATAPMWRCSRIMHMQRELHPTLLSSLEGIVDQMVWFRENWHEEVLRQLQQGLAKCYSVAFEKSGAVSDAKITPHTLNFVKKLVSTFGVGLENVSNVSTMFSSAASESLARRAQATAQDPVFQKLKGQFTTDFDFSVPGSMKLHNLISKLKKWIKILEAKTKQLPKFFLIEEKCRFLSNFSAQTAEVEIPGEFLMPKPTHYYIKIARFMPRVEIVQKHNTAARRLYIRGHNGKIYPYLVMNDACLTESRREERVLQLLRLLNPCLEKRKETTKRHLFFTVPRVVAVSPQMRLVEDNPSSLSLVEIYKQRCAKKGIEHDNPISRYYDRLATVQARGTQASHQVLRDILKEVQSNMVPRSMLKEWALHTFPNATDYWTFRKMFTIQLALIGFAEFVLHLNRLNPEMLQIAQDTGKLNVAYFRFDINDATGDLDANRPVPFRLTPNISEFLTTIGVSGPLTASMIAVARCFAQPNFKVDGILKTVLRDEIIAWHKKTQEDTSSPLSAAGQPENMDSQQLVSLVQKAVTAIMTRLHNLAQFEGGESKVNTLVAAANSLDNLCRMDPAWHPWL
# UniProt Q6ZU65, whole entry, looked up: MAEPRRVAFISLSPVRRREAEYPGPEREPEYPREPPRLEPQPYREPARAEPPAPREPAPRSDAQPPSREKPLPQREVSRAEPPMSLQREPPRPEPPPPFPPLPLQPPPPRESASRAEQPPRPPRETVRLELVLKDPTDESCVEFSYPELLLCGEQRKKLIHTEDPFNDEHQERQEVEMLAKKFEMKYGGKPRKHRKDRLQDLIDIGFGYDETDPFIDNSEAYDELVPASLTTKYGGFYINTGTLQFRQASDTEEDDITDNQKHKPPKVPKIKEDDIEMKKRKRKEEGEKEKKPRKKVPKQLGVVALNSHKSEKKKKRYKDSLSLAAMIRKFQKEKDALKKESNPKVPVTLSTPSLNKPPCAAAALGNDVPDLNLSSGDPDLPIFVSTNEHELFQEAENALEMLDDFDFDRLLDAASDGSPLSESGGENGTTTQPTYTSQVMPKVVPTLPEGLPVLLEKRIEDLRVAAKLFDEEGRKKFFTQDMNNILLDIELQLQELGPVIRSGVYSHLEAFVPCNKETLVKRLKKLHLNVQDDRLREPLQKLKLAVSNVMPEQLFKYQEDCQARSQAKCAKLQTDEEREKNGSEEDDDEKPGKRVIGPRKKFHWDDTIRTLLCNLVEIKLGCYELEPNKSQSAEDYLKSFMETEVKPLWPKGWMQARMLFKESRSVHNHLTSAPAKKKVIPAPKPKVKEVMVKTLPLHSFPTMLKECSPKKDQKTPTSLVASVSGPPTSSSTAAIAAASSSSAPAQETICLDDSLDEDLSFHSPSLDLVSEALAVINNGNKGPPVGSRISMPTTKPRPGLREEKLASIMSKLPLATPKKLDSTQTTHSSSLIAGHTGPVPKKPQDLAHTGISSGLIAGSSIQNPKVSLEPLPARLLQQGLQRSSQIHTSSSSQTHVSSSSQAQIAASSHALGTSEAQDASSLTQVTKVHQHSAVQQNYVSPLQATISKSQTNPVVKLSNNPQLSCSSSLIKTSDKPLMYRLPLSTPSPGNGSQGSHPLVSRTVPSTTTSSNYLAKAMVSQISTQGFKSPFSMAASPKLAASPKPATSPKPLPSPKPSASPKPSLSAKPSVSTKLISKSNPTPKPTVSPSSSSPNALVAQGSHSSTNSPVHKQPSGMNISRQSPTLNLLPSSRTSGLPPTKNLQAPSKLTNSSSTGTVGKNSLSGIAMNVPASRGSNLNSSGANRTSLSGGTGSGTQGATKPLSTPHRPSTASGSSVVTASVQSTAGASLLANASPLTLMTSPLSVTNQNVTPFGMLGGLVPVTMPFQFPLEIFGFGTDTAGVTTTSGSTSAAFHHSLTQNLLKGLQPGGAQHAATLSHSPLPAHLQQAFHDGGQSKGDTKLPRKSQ
# UniProt Q9UNY4, 549-575: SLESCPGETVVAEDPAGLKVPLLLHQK
# Some of the results follow. The data scatter; read single values as rough.
# Compound: ClCC(=O)N[C@@H]1CCCc2ccccc12
# Experiment: log2 mean competition ratio of IA-DTB cysteine labelling (DMSO/compound) (log2 ratio); higher = stronger cysteine engagement by compound
# Settings: 50 µM; treatment time: 4 h; cell line lysate: HEK293T
# Experimental: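 IA-DTB competitive cysteine chemoproteomics in HEK293T RIPA lysate. Lysates were treated with compound 29 or 30 at 50 or 200 µM for 4 h, then IA-DTB (500 µM, 1 h), trypsin-digested, NeutrAvidin-enriched and analysed by diaPASEF. Competition ratio = intensity DMSO / intensity compound (n=4 treated, n=64 DMSO); binding: mean log2 CR ≥ 1 and p ≤ 0.05 plus QC filters. Target is the cysteine site.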
row,Target,log2 mean competition ratio
1,TTC27 C299 (UniProt Q6P3X3),-0.279
2,TTC39C C87 (UniProt Q8N584),0.105
3,TRMT2A C191 (UniProt Q8IZ69),0.102
4,UACA C453 (UniProt Q9BZF9),-0.00873
5,UBE3C C395 (UniProt Q15386),-0.136
6,TXNRD3 C76 (UniProt Q86VQ6),0.651
7,UBN1 C38 (UniProt Q9NPG3),0.172
8,TUT7 C911 (UniProt Q5VYS8),0.167
9,TRMT44 C53 (UniProt Q8IYL2),0.0534
10,TUT4 C746 (UniProt Q5TAX3),-0.24
11,TUFM C290 (UniProt P49411),-0.0711
12,U2AF1 C163 (UniProt Q01081),-0.105
13,UBE3B C75 (UniProt Q7Z3V4),0.201
14,UBAP2 C208,0.0217
15,TRRAP C546 (UniProt Q9Y4A5),-0.239
16,UBN2 C614 (UniProt Q6ZU65),0.238
17,U2AF2 C464,0.212
18,TRRAP C3555 (UniProt Q9Y4A5),-0.0366
19,TRRAP C3758 (UniProt Q9Y4A5),0.0255
20,TTF2 C553 (UniProt Q9UNY4),0.127

# Same assay, conditions: 200 µM; treatment time: 4 h; cell line lysate: HEK293T
row,Target,log2 mean competition ratio
1,TTC27 C299 (UniProt Q6P3X3),0.182
2,TTC39C C87 (UniProt Q8N584),-0.277
3,TRMT2A C191 (UniProt Q8IZ69),0.372
4,UACA C453 (UniProt Q9BZF9),-0.191
5,UBE3C C395 (UniProt Q15386),0.0109
6,TXNRD3 C76 (UniProt Q86VQ6),0.963
7,UBN1 C38 (UniProt Q9NPG3),-0.312
8,TUT7 C911 (UniProt Q5VYS8),-0.147
9,TRMT44 C53 (UniProt Q8IYL2),-0.213
10,TUT4 C746 (UniProt Q5TAX3),0.0563
11,TUFM C290 (UniProt P49411),-0.0549
12,U2AF1 C163 (UniProt Q01081),0.359
13,UBE3B C75 (UniProt Q7Z3V4),0.321
14,UBAP2 C208,0.101
15,TRRAP C546 (UniProt Q9Y4A5),-0.184
16,UBN2 C614 (UniProt Q6ZU65),0.279
17,U2AF2 C464,-0.214
18,TRRAP C3555 (UniProt Q9Y4A5),0.136
19,TRRAP C3758 (UniProt Q9Y4A5),-0.295
20,TTF2 C553 (UniProt Q9UNY4),0.0416
